{"sequences": {"note": "By UniProt entry, the sequences of proteins in these tests, tags left out. Where a name states a change or a piece, a line headed by the entry shows the natural chain unless it says otherwise.", "UniProt A0A3B6LNR2": "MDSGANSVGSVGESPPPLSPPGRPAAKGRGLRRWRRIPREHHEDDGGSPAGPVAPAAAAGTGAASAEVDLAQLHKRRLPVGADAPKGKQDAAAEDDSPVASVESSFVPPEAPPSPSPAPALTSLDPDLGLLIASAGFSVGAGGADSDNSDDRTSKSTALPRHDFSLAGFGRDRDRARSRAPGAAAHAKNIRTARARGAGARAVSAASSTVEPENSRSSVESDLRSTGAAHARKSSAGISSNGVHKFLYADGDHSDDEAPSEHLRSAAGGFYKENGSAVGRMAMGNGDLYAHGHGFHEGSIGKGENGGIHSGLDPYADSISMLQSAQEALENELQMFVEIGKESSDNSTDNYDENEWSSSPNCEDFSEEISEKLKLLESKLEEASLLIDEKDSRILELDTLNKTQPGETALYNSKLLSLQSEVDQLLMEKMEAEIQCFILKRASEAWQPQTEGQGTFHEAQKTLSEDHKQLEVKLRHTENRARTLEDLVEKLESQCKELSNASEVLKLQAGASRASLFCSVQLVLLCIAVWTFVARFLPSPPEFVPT", "UniProt A0A3B5YUG0": "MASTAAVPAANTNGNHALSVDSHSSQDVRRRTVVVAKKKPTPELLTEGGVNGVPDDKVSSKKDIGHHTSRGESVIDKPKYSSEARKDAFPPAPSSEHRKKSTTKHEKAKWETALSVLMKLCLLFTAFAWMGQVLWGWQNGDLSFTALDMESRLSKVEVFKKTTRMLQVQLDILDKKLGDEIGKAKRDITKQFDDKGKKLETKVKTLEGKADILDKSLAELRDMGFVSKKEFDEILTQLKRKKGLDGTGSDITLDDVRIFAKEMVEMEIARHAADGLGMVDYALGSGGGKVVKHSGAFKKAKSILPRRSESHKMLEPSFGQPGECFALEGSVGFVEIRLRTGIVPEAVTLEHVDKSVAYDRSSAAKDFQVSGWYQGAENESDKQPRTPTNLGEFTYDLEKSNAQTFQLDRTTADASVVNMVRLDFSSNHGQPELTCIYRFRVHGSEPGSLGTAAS", "UniProt A0A3B6C3B0": "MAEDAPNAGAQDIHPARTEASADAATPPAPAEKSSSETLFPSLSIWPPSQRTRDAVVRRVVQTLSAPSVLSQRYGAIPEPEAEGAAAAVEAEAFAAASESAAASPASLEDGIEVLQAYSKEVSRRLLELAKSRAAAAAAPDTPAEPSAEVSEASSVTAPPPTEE", "UniProt A0A3B6HRR1": "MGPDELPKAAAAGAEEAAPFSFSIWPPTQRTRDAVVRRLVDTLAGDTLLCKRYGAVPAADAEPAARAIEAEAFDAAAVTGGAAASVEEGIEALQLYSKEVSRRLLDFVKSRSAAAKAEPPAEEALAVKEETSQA"}, "source": "paper PMC11166608", "key": {"[1]": {"molecular_target": "TaSUN2 (nuclear yeast two-hybrid fusion) (Triticum aestivum)", "test": "two-hybrid; nuclear Gal4 yeast two-hybrid; pGBKT7 and pGADT7 fusions co-transferred into Y2H yeast; growth on quadruple dropout medium with x-α-gal"}, "[2]": {"molecular_target": "TaWPP1 (nuclear yeast two-hybrid fusion) (Triticum aestivum)", "test": "two-hybrid; nuclear Gal4 yeast two-hybrid; pGBKT7 and pGADT7 fusions co-transferred into Y2H yeast; growth on quadruple dropout medium with x-α-gal"}, "[3]": {"molecular_target": "TaWPP2 (nuclear yeast two-hybrid fusion) (Triticum aestivum)", "test": "two-hybrid; nuclear Gal4 yeast two-hybrid; pGBKT7 and pGADT7 fusions co-transferred into Y2H yeast; growth on quadruple dropout medium with x-α-gal"}, "[4]": {"molecular_target": "TaWIT1 (split-ubiquitin MYTH bait) (Triticum aestivum)", "test": "two-hybrid; split-ubiquitin-based membrane yeast two-hybrid (MYTH) in NMY51; bait and prey vectors; quadruple dropout/x-α-gal/2.5 mM 3AT"}, "[5]": {"molecular_target": "TaWIT1 (BiFC fusion, pn/cEYFP-TaWIT1) (Triticum aestivum)", "test": "split reporter; BiFC: nEYFP and cEYFP fusions transiently co-expressed in N. benthamiana leaf epidermal cells; YFP by confocal microscopy"}, "[6]": {"molecular_target": "TaWPP2 (BiFC fusion, pn/cEYFP-TaWPP2) (Triticum aestivum)", "test": "split reporter; BiFC: nEYFP and cEYFP fusions transiently co-expressed in N. benthamiana leaf epidermal cells; YFP by confocal microscopy"}, "[7]": {"molecular_target": "TaRanGAP2 (BiFC fusion, pn/cEYFP-TaRanGAP2) (Triticum aestivum)", "test": "split reporter; BiFC: nEYFP and cEYFP fusions transiently co-expressed in N. benthamiana leaf epidermal cells; YFP by confocal microscopy"}}, "note": "Results are given in words; binding and its absence hold for the method and conditions named. A result given as binding can be weak or reduced; the word gives no strength. For part of these data: In cells and extracts the contact can be indirect."}
{"substance": "TaWIP1 (nuclear yeast two-hybrid fusion) (from UniProt A0A3B6LNR2)", "values": [{"measurement": "binding", "setting": "[1]", "result": "binds"}, {"measurement": "binding", "setting": "[2]", "result": "binds"}, {"measurement": "binding", "setting": "[3]", "result": "binds"}]}
{"substance": "TaSUN2 (split-ubiquitin MYTH prey) (from UniProt A0A3B5YUG0)", "values": [{"measurement": "binding", "setting": "[4]", "result": "binds"}]}
{"substance": "TaWPP1 (BiFC fusion, pn/cEYFP-TaWPP1) (from UniProt A0A3B6C3B0)", "values": [{"measurement": "binding", "setting": "[5]", "result": "binds"}, {"measurement": "binding", "setting": "[6]", "result": "binds"}, {"measurement": "binding", "setting": "[7]", "result": "binds"}]}
{"substance": "TaWPP2 (BiFC fusion, pn/cEYFP-TaWPP2) (from UniProt A0A3B6HRR1)", "values": [{"measurement": "binding", "setting": "[5]", "result": "binds"}, {"measurement": "binding", "setting": "[7]", "result": "binds"}]}
